From publication PMC3723494
Results are given in words; binding and its absence hold for the method and conditions named. In cells and extracts the contact can be indirect. Here binding means that the protein was enriched with, or labelled near, the bait; the list need not be complete.

Amino acid sequences for entries named in this document (tags omitted). A change or cut given only in a name is not applied to a line headed by its entry.
UniProt Q91YE7: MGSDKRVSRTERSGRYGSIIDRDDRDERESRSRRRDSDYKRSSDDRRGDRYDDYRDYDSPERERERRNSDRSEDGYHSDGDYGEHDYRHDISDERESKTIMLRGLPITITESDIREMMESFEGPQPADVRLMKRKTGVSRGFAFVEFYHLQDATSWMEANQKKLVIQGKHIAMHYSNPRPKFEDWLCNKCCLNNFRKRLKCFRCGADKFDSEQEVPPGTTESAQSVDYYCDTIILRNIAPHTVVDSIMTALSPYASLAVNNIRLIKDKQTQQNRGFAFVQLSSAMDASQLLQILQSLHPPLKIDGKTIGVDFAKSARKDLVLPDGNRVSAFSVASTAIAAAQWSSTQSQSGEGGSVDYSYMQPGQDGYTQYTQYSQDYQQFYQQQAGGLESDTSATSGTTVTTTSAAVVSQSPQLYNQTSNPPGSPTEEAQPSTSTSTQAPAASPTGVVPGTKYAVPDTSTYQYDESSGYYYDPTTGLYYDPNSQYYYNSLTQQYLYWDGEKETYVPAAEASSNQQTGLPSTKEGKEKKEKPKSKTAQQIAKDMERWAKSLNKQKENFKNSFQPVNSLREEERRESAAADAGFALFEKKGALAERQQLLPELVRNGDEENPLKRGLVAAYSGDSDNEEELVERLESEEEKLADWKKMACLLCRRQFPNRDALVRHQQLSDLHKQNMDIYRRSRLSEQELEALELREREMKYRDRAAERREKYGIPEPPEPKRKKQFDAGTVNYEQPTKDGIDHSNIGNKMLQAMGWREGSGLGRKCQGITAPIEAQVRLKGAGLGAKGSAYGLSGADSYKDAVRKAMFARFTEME
UniProt P70372: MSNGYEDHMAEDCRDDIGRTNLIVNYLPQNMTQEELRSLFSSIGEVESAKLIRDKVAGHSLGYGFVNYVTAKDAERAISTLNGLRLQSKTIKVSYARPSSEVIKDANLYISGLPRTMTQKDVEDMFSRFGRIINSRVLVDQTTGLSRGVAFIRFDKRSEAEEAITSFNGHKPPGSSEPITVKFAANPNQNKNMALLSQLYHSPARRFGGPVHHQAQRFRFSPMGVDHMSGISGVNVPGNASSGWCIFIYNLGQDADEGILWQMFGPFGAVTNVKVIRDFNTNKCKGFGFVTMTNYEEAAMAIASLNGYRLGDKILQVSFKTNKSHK
UniProt Q8K310: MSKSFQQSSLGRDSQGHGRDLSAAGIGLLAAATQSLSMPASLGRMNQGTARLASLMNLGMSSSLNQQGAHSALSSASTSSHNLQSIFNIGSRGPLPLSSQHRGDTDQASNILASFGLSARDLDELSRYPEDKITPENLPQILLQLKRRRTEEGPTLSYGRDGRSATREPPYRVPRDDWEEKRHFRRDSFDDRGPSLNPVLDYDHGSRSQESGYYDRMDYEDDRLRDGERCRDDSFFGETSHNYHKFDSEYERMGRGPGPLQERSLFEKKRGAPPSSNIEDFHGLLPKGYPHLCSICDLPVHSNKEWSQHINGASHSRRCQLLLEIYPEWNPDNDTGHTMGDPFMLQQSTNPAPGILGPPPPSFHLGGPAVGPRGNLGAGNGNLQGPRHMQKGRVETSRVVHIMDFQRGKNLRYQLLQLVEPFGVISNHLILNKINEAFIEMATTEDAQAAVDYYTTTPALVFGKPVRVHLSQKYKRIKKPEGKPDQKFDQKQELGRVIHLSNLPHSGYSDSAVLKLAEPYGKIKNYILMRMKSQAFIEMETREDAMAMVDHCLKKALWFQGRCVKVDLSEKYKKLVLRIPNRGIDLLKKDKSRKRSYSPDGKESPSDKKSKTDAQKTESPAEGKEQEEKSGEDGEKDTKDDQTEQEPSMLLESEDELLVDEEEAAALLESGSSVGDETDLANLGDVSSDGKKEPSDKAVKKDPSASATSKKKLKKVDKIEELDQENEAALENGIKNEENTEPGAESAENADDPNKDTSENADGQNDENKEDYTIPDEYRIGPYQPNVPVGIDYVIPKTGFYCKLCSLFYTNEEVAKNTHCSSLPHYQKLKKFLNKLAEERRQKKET
UniProt P29341: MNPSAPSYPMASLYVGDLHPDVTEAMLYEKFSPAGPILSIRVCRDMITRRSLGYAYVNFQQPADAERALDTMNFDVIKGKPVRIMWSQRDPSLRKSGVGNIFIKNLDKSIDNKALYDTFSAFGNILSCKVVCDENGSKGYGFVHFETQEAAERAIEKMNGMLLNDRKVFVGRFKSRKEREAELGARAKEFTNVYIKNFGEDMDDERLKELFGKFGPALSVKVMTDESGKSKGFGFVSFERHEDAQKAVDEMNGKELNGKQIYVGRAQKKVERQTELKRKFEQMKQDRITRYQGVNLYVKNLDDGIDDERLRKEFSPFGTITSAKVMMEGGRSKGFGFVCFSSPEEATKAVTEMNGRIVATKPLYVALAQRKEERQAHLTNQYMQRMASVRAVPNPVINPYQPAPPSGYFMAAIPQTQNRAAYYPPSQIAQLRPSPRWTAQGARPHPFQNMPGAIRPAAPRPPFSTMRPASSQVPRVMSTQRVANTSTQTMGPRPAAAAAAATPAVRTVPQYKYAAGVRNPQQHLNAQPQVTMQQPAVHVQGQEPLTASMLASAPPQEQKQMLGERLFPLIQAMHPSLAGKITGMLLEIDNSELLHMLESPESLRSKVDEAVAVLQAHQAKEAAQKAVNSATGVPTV
UniProt Q99JF8: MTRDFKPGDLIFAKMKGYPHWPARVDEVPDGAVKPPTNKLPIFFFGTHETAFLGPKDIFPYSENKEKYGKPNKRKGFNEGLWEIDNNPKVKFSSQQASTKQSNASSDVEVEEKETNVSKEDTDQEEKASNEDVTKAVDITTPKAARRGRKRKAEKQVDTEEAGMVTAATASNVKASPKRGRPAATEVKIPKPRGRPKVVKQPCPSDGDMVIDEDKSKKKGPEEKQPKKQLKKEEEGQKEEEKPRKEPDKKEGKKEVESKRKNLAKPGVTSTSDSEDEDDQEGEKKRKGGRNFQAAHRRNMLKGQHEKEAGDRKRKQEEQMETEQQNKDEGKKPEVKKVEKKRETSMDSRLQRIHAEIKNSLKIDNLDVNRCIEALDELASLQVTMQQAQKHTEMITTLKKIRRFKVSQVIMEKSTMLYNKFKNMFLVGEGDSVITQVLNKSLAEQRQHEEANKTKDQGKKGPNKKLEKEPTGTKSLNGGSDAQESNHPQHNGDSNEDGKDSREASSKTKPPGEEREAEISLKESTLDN
UniProt Q6PDM2: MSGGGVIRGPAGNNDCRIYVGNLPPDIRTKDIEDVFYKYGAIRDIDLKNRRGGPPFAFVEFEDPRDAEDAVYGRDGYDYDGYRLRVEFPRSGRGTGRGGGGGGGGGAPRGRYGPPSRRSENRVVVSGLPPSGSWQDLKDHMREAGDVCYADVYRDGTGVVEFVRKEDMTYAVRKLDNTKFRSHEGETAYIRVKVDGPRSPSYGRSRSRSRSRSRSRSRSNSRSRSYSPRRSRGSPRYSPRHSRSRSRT
UniProt Q62189: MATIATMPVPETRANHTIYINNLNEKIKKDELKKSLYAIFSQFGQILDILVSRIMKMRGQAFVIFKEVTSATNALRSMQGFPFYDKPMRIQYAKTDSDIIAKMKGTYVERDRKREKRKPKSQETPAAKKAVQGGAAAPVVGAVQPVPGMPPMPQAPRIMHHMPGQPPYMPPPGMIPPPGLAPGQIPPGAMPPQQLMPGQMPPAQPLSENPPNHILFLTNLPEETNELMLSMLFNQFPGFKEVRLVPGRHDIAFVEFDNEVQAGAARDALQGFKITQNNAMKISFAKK
UniProt O88569: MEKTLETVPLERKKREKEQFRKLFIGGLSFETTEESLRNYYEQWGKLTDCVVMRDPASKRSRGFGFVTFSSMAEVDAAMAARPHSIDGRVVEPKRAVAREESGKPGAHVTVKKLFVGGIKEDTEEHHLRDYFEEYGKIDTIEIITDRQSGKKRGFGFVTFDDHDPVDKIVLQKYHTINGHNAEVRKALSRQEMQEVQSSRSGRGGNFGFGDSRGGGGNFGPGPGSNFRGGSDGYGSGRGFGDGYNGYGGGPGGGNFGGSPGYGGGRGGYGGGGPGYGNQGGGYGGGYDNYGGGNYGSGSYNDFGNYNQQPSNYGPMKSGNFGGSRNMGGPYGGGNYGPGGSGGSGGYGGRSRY
UniProt Q8VDM6: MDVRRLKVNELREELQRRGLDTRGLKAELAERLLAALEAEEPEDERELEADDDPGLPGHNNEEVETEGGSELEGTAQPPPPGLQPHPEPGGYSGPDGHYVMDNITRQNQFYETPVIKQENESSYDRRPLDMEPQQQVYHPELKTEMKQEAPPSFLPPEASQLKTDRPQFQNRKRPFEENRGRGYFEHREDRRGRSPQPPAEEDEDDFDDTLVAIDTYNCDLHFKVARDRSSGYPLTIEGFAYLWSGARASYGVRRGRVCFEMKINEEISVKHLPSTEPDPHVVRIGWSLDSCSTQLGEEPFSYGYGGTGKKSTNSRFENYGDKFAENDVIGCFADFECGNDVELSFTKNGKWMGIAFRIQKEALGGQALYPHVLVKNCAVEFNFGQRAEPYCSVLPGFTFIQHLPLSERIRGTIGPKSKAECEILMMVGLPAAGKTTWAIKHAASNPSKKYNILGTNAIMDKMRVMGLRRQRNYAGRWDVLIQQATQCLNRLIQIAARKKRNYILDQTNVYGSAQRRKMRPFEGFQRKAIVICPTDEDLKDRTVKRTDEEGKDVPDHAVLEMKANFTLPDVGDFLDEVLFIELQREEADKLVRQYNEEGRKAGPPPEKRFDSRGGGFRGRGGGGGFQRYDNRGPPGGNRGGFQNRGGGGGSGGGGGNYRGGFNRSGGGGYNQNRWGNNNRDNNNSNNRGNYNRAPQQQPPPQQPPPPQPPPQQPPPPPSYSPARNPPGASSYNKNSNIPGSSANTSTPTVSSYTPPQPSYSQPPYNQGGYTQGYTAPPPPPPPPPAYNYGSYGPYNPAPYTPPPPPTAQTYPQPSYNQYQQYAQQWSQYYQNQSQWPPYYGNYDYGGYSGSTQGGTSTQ

B1: DDX4 (DEAD (Asp-Glu-Ala-Asp) box helicase 4) (protein, UniProt Q61496 1-702)
chain: MGDEDWEAEILKPHVSSYVPVFEKDKYSSGANGDTFNRTSASSDIGESSKKENTSTTGGFGRGKGFGNRGFLNNKFEEGDSSGFWKESNNDCEDNQTRSRGFSKRGGCQDGNDSEASGPFRRGGRGSFRGCRGGFGLGRPNSESDQDQGTQRGGGLFGSRKPAASDSGNGDTYQSRSGSGRGGYKGLNEEVVTGSGKNSWKSETEGGESSDSQGPKVTYIPPPPPEDEDSIFAHYQTGINFDKYDTILVEVSGHDAPPAILTFEEANLCQTLNNNIAKAGYTKLTPVQKYSIPIVLAGRDLMACAQTGSGKTAAFLLPILAHMMRDGITASRFKELQEPECIIVAPTRELINQIYLEARKFSFGTCVRAVVIYGGTQFGHSVRQIVQGCNILCATPGRLMDIIGKEKIGLKQVKYLVLDEADRMLDMGFGPEMKKLISCPGMPSKEQRQTLLFSATFPEEIQRLAGDFLKSSYLFVAVGQVGGACRDVQQTILQVGQYSKREKLVEILRNIGDERTMVFVETKKKADFIATFLCQEKISTTSIHGDREQREREQALGDFRCGKCPVLVATSVAARGLDIENVQHVINFDLPSTIDEYVHRIGRTGRCGNTGRAISFFDTDSDNHLAQPLVKVLSDAQQDVPAWLEEIAFSTYVPPSFSSSTRGGAVFASVDTRKNYQGKHTLNTAGISSSQAPNPVDDESWD
B2: PSPC1 (paraspeckle component 1) (protein, UniProt Q8R326 1-523)
chain: MMLRGNLKQVRIEKNPARLRALESAAGESEPVAAAAMALTLAGEQAPPPAPSEEHPDEELGFTIDIKSFLKPGEKTYTQRCRLFVGNLPTDITEEDFKRLFERYGEPSEVFINRDRGFGFIRLESRTLAEIAKAELDGTILKSRPLRIRFATHGAALTVKNLSPVVSNELLEQAFSQFGPVEKAVVVVDDRGRATGKGFVEFAAKPPARKALERCGDGAFLLTTTPRPVIVEPMEQFDDEDGLPEKLMQKTQQYHKEREQPPRFAQPGTFEFEYASRWKALDEMEKQQREQVDRNIREAKEKLEAEMEAARHEHQLMLMRQDLMRRQEELRRLEELRNQELQKRKQIQLRHEEEHRRREEEMIRHREQEELRRQQEGGFKPNYMENREQEMRMGDMGPRGAINMGDAFSPAPAGTQGPPPMMGMNMNNRGTIPGPPMGPGPAMGPEGAANMGTPMIPDNGAVHNDRFPQGPPSQMGSPMGNRTGSETPQAPMSGVGPVSGGPGGFGRGSQGGNFEGPNKRRRY
B3: splicing factor SFPQ (proline- and glutamine-rich) (protein, UniProt Q8VIJ6 1-699)
chain: MSRDRFRSRGGGGGGFHRRGGGGGRGGLHDFRSPPPGMGLNQNRGPMGPGPGGPKPPLPPPPPHQQQQQPPPQQPPPQQPPPHQQPPPHQPPHQQPPPPPQESKPVVPQGPGSAPGVSSAPPPAVSAPPANPPTTGAPPGPGPTPTPPPAVPSTAPGPPPPSTPSSGVSTTPPQTGGPPPPPAGGAGPGPKPGPGPGGPKGGKMPGGPKPGGGPGMGAPGGHPKPPHRGGGEPRGGRQHHAPYHQQHHQGPPPGGPGPRTEEKISDSEGFKANLSLLRRPGEKTYTQRCRLFVGNLPADITEDEFKRLFAKYGEPGEVFINKGKGFGFIKLESRALAEIAKAELDDTPMRGRQLRVRFATHAAALSVRNLSPYVSNELLEEAFSQFGPIERAVVIVDDRGRSTGKGIVEFASKPAARKAFERCSEGVFLLTTTPRPVIVEPLEQLDDEDGLPEKLAQKNPMYQKERETPPRFAQHGTFEYEYSQRWKSLDEMEKQQREQVEKNMKDAKDKLESEMEDAYHEHQANLLRQDLMRRQEELRRMEELHSQEMQKRKEMQLRQEEERRRREEEMMIRQREMEEQMRRQREESYSRMGYMDPRERDMRMGGGGTMNMGDPYGSGGQKFPPLGGGGGIGYEANPGVPPATMSGSMMGSDMRTERFGQGGAGPVGGQGPRGMGPGTPAGYGRGREEYEGPNKKPRF

What follows are molecules tested against RBM5 (RNA binding motif 5) (mouse (endogenous in round spermatids)) (UniProt Q91YE7) (assay: affinity purification with mass spectrometry; immunoprecipitation of RBM5 from purified round spermatid extracts with 5 ug RBM5 mouse monoclonal antibody (mouse IgG1 as control); immunocomplexes analysed by mass spectrometry; hits: Mascot score at least 40 and more than 2 unique peptides).

binding, binds:
ELAV1 (embryonic lethal abnormal vision-like protein 1) (from UniProt P70372 1-326), MATR3 (from UniProt Q8K310 1-846), PABP1 (polyadenylate-binding protein 1) (from UniProt P29341 1-636), PSIP1 (PC4 and SFRS1-interacting protein) (from UniProt Q99JF8 1-528), SFRS1 (serine/arginine-rich splicing factor 1) (from UniProt Q6PDM2 1-248), U1A (small nuclear ribonucleoprotein polypeptide A) (from UniProt Q62189 1-287), hnRNP A2/B1 (heterogeneous nuclear ribonucleoprotein A2/B1) (from UniProt O88569 1-353), hnRNP K (heterogeneous nuclear ribonucleoprotein K) (from UniProt P61979 1-463), hnRNP UL1 (heterogeneous nuclear ribonucleoprotein UL1) (from UniProt Q8VDM6 1-859), B1, B2, B3
